# In the supplement of paper PMC6411743:
# ± gives the standard deviation of the averaged measurements. This is one part of the list.
# Target: T1, HSPBP1 (UniProt Q9NZL4)
# T1 sequence (whole entry): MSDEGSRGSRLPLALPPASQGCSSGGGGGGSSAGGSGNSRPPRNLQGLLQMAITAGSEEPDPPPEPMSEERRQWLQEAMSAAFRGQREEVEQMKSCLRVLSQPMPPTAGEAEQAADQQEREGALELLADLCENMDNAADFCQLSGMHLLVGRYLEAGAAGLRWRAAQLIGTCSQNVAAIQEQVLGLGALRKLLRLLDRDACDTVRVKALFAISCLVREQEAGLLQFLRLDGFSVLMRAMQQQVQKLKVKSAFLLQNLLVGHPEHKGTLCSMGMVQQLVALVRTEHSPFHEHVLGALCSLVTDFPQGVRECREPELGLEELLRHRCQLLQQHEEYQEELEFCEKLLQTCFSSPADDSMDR
# Assay: NP40-soluble protein abundance relative to vehicle (solubility fold change) (ratio); higher = more soluble protein in presence of GTP
# Description: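 Solubility proteome profiling in Jurkat crude lysate. Lysate was treated with Mg-GTP (0.1-10 mM) for 10 min at room temperature and 3 min at 37 °C, then solubilised with 0.8% NP40 and benzonase, followed by ultracentrifugation. Proteins were quantified by TMT10 LC-MS/MS; the value is the NP40-soluble abundance relative to the NP40-processed vehicle, from 3 independent experiments.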
compound,measurement,setting,value
Nc1nc2c(ncn2[C@@H]2O[C@H](COP(=O)(O)OP(=O)(O)OP(=O)(O)O)[C@@H](O)[C@H]2O)c(=O)[nH]1 [guanosine triphosphate],NP40-soluble protein abundance,concentration: 0.1mM,0.971 ± 0.024
same,NP40-soluble protein abundance,concentration: 0.5mM,0.921 ± 0.055
same,NP40-soluble protein abundance,concentration: 1mM,0.901 ± 0.013
same,NP40-soluble protein abundance,concentration: 2mM,0.931 ± 0.031
same,NP40-soluble protein abundance,concentration: 4mM,0.927 ± 0.045
same,NP40-soluble protein abundance,concentration: 6mM,0.889 ± 0.047
same,NP40-soluble protein abundance,concentration: 8mM,0.832 ± 0.075
same,NP40-soluble protein abundance,concentration: 10mM,0.886 ± 0.04
